# The supplement of paper PMC12067093, “Discovery and optimisation of a covalent ligand for TRIM25 and its application to targeted protein ubiquitination” (Chemical Science, 2025)
# Protein sequences, listed by entry. Tags and fused reporters are not part of them. Lines headed by an entry give the natural chain unless they say otherwise; changes in a name come on top.
# UniProt Q8IX12: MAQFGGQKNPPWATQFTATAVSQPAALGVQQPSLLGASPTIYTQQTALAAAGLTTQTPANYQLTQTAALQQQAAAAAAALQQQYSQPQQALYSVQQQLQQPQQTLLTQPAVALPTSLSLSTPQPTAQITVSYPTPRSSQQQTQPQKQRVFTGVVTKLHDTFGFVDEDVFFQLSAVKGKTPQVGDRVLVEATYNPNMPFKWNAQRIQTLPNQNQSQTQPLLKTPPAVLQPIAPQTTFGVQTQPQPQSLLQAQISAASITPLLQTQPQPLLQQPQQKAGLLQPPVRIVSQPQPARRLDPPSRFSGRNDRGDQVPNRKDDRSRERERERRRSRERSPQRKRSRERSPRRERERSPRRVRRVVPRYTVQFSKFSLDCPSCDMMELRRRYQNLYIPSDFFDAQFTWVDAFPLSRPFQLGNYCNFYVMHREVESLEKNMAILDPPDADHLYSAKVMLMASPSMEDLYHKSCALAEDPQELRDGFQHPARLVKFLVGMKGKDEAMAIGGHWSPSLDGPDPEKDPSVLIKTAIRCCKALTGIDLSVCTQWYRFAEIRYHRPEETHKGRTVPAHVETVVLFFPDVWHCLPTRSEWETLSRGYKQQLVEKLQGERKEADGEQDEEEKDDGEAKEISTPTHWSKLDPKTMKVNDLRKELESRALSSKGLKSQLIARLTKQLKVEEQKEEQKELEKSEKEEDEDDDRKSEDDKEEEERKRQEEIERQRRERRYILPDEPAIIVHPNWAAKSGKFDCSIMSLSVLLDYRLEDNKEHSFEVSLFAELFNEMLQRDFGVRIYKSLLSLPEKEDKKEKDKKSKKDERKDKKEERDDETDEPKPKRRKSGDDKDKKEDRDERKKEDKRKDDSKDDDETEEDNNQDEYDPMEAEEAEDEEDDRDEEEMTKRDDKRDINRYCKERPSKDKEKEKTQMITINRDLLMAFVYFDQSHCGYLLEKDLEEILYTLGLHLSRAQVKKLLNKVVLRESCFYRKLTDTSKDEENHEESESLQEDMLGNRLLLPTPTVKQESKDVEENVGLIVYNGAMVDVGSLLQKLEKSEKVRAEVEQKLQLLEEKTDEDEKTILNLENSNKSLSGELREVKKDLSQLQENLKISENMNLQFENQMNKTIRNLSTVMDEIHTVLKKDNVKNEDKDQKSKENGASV
# UniProt P42575: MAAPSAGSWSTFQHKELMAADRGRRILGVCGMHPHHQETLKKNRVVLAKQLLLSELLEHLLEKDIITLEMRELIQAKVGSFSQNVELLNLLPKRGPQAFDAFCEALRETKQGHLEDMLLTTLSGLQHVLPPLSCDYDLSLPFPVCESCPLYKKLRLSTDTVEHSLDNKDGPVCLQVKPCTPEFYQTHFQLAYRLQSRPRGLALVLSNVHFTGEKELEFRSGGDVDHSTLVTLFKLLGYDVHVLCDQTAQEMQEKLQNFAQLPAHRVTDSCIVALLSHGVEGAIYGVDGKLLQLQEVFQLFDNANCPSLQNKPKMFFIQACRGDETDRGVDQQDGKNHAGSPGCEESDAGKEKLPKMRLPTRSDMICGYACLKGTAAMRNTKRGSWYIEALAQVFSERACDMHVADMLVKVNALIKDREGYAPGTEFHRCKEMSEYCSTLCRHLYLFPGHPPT
# UniProt Q4VC31: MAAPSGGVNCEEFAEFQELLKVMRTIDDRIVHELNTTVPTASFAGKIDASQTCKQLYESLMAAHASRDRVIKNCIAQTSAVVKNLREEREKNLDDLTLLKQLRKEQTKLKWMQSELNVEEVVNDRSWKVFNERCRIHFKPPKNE
# UniProt P07384: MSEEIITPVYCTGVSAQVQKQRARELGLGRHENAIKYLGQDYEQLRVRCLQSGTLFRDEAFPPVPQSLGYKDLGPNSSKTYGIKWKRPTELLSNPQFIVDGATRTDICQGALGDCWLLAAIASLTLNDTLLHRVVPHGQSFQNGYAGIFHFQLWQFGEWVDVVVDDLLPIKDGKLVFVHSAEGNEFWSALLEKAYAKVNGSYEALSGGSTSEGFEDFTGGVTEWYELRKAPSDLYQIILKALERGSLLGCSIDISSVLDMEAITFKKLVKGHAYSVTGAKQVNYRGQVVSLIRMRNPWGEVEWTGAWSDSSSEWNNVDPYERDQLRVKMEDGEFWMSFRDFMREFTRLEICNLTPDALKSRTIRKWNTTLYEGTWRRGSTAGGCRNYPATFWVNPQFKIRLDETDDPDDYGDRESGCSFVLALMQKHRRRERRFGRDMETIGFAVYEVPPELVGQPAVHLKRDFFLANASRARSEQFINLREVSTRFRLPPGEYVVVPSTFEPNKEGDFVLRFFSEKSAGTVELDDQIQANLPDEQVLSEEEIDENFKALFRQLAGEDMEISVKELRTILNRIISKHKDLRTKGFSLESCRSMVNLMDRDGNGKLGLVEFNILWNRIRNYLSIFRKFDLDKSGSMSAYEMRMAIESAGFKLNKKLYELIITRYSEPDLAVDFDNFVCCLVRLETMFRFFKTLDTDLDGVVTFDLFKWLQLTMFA
# UniProt Q8N163, whole entry, looked up: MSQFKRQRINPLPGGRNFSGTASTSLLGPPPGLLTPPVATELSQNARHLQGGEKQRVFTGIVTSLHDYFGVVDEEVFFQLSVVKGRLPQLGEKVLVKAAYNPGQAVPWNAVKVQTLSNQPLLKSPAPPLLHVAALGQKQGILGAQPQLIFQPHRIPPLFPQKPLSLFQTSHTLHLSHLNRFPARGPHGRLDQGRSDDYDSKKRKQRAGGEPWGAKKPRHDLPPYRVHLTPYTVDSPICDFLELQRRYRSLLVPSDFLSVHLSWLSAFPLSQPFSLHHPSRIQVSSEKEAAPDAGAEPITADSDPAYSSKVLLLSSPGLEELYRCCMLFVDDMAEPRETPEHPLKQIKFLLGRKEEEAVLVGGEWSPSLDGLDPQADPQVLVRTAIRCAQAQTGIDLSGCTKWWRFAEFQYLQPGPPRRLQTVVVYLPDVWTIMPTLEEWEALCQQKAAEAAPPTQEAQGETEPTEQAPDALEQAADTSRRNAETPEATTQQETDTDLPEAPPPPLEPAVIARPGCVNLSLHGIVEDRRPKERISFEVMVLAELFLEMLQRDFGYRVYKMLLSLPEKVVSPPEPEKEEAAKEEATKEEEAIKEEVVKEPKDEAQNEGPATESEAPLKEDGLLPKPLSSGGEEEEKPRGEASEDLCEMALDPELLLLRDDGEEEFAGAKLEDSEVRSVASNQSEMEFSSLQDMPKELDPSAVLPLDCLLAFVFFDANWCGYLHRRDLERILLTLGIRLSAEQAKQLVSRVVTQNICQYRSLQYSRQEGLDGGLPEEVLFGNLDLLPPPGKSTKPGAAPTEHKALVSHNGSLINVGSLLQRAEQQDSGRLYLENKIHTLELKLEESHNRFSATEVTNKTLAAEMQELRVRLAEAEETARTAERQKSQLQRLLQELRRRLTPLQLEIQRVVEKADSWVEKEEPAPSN
# UniProt Q9UKL3: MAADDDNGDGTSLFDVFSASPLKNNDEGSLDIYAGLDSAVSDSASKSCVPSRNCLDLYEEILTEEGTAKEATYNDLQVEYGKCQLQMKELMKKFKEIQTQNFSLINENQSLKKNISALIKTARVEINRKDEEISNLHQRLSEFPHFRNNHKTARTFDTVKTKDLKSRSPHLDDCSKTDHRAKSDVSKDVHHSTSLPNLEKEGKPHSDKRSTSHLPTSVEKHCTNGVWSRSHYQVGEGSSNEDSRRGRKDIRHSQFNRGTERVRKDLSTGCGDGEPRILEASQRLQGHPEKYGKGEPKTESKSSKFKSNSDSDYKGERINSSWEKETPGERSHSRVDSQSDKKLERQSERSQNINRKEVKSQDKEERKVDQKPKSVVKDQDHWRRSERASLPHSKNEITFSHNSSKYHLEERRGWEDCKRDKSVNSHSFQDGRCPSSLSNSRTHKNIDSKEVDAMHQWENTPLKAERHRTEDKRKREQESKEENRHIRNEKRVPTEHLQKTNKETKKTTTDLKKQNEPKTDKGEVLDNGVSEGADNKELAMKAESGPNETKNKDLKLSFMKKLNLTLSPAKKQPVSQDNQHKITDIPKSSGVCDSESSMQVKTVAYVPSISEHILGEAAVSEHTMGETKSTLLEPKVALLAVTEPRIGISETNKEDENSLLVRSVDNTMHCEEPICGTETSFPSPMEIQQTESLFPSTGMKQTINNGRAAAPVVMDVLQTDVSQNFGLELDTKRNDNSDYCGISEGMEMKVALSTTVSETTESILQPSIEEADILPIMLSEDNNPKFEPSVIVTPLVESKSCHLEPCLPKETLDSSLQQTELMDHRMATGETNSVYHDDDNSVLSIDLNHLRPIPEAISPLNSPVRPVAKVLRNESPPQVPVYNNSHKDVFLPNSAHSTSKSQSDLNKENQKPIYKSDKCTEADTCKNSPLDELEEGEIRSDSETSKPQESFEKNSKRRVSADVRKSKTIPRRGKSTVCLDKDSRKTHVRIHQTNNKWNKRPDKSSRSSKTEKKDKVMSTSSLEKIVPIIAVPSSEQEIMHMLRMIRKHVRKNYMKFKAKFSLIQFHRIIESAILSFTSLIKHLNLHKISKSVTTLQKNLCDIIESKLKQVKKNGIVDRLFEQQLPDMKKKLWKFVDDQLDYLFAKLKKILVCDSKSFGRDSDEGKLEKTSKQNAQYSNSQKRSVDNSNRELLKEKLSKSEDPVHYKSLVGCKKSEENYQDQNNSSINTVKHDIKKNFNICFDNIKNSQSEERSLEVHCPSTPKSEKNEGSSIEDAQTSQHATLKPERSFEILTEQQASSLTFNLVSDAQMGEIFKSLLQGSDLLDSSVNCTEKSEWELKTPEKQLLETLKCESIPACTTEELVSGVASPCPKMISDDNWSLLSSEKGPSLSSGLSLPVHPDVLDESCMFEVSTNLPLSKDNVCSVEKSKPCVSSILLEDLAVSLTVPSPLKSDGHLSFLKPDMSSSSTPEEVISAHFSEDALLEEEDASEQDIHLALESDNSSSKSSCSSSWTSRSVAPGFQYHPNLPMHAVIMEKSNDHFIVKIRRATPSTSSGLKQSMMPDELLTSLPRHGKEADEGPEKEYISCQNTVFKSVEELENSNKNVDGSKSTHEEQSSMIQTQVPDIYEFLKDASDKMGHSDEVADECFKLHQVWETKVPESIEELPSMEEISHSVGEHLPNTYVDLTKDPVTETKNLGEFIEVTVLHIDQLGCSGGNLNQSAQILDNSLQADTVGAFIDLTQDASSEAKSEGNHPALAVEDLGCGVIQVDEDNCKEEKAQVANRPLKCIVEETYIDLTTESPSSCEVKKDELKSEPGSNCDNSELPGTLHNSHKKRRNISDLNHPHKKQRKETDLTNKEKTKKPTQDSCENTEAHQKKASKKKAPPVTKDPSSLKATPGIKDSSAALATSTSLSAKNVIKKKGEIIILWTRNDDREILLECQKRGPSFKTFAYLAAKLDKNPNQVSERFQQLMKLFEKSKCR
# UniProt P04632: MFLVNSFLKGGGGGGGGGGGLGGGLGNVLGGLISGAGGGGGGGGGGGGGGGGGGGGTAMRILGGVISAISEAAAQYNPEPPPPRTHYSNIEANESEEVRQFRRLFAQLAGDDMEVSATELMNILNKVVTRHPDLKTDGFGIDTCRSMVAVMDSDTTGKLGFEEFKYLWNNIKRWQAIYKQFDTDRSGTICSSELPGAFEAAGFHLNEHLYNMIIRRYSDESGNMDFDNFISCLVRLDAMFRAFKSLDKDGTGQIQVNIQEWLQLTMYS
# UniProt Q567U6, whole entry: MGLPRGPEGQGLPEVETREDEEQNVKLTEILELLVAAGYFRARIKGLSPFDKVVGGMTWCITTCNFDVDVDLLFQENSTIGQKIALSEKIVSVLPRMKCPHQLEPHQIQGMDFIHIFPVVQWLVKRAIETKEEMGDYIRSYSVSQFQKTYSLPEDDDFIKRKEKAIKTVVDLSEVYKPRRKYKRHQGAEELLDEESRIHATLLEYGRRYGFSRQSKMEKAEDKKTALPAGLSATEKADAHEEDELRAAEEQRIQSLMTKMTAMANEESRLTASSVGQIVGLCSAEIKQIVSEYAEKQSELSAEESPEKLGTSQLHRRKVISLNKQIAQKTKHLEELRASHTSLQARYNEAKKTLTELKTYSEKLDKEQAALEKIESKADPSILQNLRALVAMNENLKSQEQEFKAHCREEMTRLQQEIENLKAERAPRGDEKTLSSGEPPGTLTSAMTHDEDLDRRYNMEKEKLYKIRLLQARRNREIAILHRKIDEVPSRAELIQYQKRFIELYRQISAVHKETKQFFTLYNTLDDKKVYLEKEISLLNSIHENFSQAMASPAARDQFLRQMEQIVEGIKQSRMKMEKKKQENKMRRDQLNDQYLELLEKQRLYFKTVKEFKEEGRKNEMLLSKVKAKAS
# UniProt P55210: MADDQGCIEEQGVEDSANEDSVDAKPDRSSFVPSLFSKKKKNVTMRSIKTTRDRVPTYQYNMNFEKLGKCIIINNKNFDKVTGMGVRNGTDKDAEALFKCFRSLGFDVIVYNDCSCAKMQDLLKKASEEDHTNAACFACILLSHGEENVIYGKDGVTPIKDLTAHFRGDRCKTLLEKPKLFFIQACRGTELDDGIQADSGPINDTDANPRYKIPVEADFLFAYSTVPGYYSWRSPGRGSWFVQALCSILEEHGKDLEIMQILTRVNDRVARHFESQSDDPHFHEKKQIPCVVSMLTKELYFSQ
# The other results are listed elsewhere or left out.
# Compound: Cc1cc(ccc1-c1ccccc1)C(=O)N1CCCN(CC1)C(=O)CCl [compound 10]
# Experiment: probe-labelled cysteine peptide fold change vs DMSO (competition) (log2 fold change); higher = less target engagement (more negative = stronger competition)
# Details: THP-1, incubation time: 4 h
# 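Further: competitive profiling in live THP-1 cells: cysteine peptides tagged with an iodoacetamide desthiobiotin (IA-DTB) probe, intensity after compound treatment relative to DMSO-treated cells.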
Target,probe-labelled cysteine peptide fold change (10 µM),probe-labelled cysteine peptide fold change (50 µM)
CCNK_O75909_99_YVTGACCLFLAGK (UniProt O75909),0.172,0.0589
CASP3_P42574_264_KQIPCIVSMLTK (UniProt P42574),-0.0758,-0.227
CASP3_P42574_47_MDYPEMGLCIIINNK (UniProt P42574),-0.153,-0.134
CCAR1_Q8IX12_579_TVPAHVETVVLFFPDVWHCLPTR (UniProt Q8IX12),-0.0511,0.0252
CCP110_O43303_174_QCDSSNISHVENEAFPK (UniProt O43303),-0.0397,-0.114
CBR1_P16152_226+227_ILLNACCPGWVR (UniProt P16152),-0.0566,-0.378
CBR1_P16152_226_ILLNACCPGWVR (UniProt P16152),-0.103,-0.297
CCT3_P49368_372_ACTILLR (UniProt P49368),0.0214,0.023
CASP1_P29466_136_LCSLEEAQR (UniProt P29466),0.0436,-0.171
CCDC47_Q96A33_214_VCCEGMLIQLR (UniProt Q96A33),-0.198,0.124
CARS_P49589_389_FPHHDNELAQSEAYFENDCWVR (UniProt P49589),-0.0658,0.153
CCL5_P13501_73_QVCANPEK (UniProt P13501),-0.704,-0.729
CASP1_P29466_362+364_LIEHMQEYACSCDVEEIFRK (UniProt P29466),-0.0851,-0.556
CCDC97_Q96F63_17_GCIEPGPGHWGELSR (UniProt Q96F63),-0.153,0.137
CASP9_P55211_187_TGSNIDCEK (UniProt P55211),-0.273,-0.256
CASP3_P42574_220_DGSWFIQSLCAMLK (UniProt P42574),-0.437,0.0855
CCT3_P49368_366_KIGDEYFTFITDCKDPK (UniProt P49368),-0.035,-0.702
CASP2_P42575_440_EMSEYCSTLCR (UniProt P42575),-0.252,-0.704
CCT4_P50991_337_EDIEFICK (UniProt P50991),0.474,0.355
CCAR1_Q8IX12_376_FSLDCPSCDMMELR (UniProt Q8IX12),0.116,-0.133
CCDC58_Q4VC31_74_NCIAQTSAVVK (UniProt Q4VC31),-0.312,0.374
CC2D1B_Q5T0F9_809_LENECEIR (UniProt Q5T0F9),-0.0993,0.295
CBX4_O00257_185_EAPSPTCPDLGAK (UniProt O00257),-0.129,-0.0437

Target,probe-labelled cysteine peptide fold change (10 µM),probe-labelled cysteine peptide fold change (50 µM)
CCT3_P49368_475_HTQENCETWGVNGETGTLVDMK (UniProt P49368),-0.135,0.0527
CASP8_Q14790_345_CPSLAGKPK (UniProt Q14790),-0.195,-0.36
CCT5_P48643_181_VVNSCHR (UniProt P48643),0.0564,0.0289
CARD9_Q9H257_329_EMFELQCLALR (UniProt Q9H257),0.00595,0.108
CAPN7_Q9Y6W3_548_ESTCIHSTWDAK (UniProt Q9Y6W3),0.237,0.423
CARS_P49589_335_ASKPGEPSWPCPWGK (UniProt P49589),-0.0902,-0.216
CASP4_P49662_109_LCPHEEFLR (UniProt P49662),0.0345,-0.0365
CCDC47_Q96A33_209_LNQENEHIYNLWCSGR (UniProt Q96A33),0.138,0.0901
CAPN1_P07384_417_ESGCSFVLALMQK (UniProt P07384),0.0605,0.351
CCDC58_Q4VC31_10_AAPSGGVNCEEFAEFQELLK (UniProt Q4VC31),-0.613,0.41
CCNB2_O95067_314_VAAAASCLSQK (UniProt O95067),0.174,0.0564
CBR3_O75828_227_ILVNACCPGPVK (UniProt O75828),-0.284,-0.265
CCAR1_Q8IX12_465_SCALAEDPQELRDGFQHPAR (UniProt Q8IX12),-0.264,-0.235
CCDC25_Q86WR0_83_ANSIQGCK (UniProt Q86WR0),-0.163,-0.303
CASP1_P29466_362_LIEHMQEYACSCDVEEIFR (UniProt P29466),0.155,-0.155
CARS2_Q9HA77_387_GQLACGSVR (UniProt Q9HA77),0.0295,0.06
CAPN1_P07384_11_SEEIITPVYCTGVSAQVQK (UniProt P07384),-0.286,-0.0134
CAPZA1_P52907_124_ESCDSALR (UniProt P52907),0.103,0.0474
CASP2_P42575_270_VTDSCIVALLSHGVEGAIYGVDGK (UniProt P42575),0.0725,-0.183
CAST_P20810_408_AAAPAPVSEAVCR (UniProt P20810),-0.379,-0.127
CAP1_Q01518_93_LERALLVTASQCQQPAENK (UniProt Q01518),0.451,0.00964
CASP6_P55212_277_KQVPCFASMLTK (UniProt P55212),0.00971,-0.323
CAPN2_P17655_301_WNDNCPSWNTIDPEER (UniProt P17655),0.0916,0.0041

Target,probe-labelled cysteine peptide fold change (10 µM),probe-labelled cysteine peptide fold change (50 µM)
CCDC117_Q8IWD4_81_EEEEDDDCPVR (UniProt Q8IWD4),-0.106,-0.0532
CCAR2_Q8N163_238_VHLTPYTVDSPICDFLELQR (UniProt Q8N163),-0.114,0.0774
CASP8AP2_Q9UKL3_1647_MGHSDEVADECFK (UniProt Q9UKL3),-0.515,-0.339
CCDC88B_A6NC98_1222_ESNQQLDLSACR (UniProt A6NC98),-0.343,-0.637
CBR1_P16152_122_DVCTELLPLIK (UniProt P16152),0.109,0.509
CCAR2_Q8N163_644_PRGEASEDLCEMALDPELLLLR (UniProt Q8N163),0.453,0.512
CASP1_P29466_285_VIIIQACR (UniProt P29466),-0.0493,-0.265
CCP110_O43303_285_HCVSVIPDKPSLNK (UniProt O43303),-0.205,0.0702
CASP1_P29466_270_NCPSLK (UniProt P29466),-0.107,-0.125
CCT3_P49368_398_NLQDAMQVCR (UniProt P49368),0.038,-0.14
CASP10_Q92851_386_EIMSHFTALQCPR (UniProt Q92851),0.0137,-0.0643
CCT3_P49368_213_IPGGIIEDSCVLR (UniProt P49368),0.0974,0.056
CAPNS1_P04632_144_TDGFGIDTCR (UniProt P04632),0.149,-0.00453
CC2D1A_Q6P1N0_590_QQHEMCLNHSNQFTQLGNITETTKFEK (UniProt Q6P1N0),0.112,-0.472
CCDC93_Q567U6_99_CPHQLEPHQIQGMDFIHIFPVVQWLVK (UniProt Q567U6),0.246,0.0898
CARS_P49589-3_81_HIEALLGSPCGK (UniProt P49589),0.154,-0.384
CASP7_P55210_139_ASEEDHTNAACFACILLSHGEENVIYGK (UniProt P55210),0.0589,0.387
CASP8AP2_Q9UKL3_270_DLSTGCGDGEPR (UniProt Q9UKL3),-0.38,-0.202
CCS_O14618_113_CLIEGTIDGLEPGLHGLHVHQYGDLTNNCNSCGNHFNPDGASHGGPQDSDR (UniProt O14618),-0.164,-0.935
CC2D1A_Q6P1N0_765_LDALEIACEVR (UniProt Q6P1N0),0.0115,0.276
CCDC47_Q96A33_283_EMQDLSEFCSDKPK (UniProt Q96A33),-0.0254,0.053
CCNA2_P20248_390_KTGYTLESLKPCLMDLHQTYLK (UniProt P20248),-0.0923,-0.383

# A different layout for some results above:
Target | probe-labelled cysteine peptide fold change (10 µM) | probe-labelled cysteine peptide fold change (50 µM)
CCDC117_Q8IWD4_81_EEEEDDDCPVR (UniProt Q8IWD4) | -0.106 | -0.0532
CCDC88B_A6NC98_1222_ESNQQLDLSACR (UniProt A6NC98) | -0.343 | -0.637
CBR1_P16152_122_DVCTELLPLIK (UniProt P16152) | 0.109 | 0.509
CCAR2_Q8N163_644_PRGEASEDLCEMALDPELLLLR (UniProt Q8N163) | 0.453 | 0.512
CCP110_O43303_285_HCVSVIPDKPSLNK (UniProt O43303) | -0.205 | 0.0702
CASP1_P29466_270_NCPSLK (UniProt P29466) | -0.107 | -0.125
CCT3_P49368_398_NLQDAMQVCR (UniProt P49368) | 0.038 | -0.14
CASP10_Q92851_386_EIMSHFTALQCPR (UniProt Q92851) | 0.0137 | -0.0643
CCT3_P49368_213_IPGGIIEDSCVLR (UniProt P49368) | 0.0974 | 0.056
CAPNS1_P04632_144_TDGFGIDTCR (UniProt P04632) | 0.149 | -0.00453
CC2D1A_Q6P1N0_590_QQHEMCLNHSNQFTQLGNITETTKFEK (UniProt Q6P1N0) | 0.112 | -0.472
CCDC93_Q567U6_99_CPHQLEPHQIQGMDFIHIFPVVQWLVK (UniProt Q567U6) | 0.246 | 0.0898
CARS_P49589-3_81_HIEALLGSPCGK (UniProt P49589) | 0.154 | -0.384
CASP7_P55210_139_ASEEDHTNAACFACILLSHGEENVIYGK (UniProt P55210) | 0.0589 | 0.387
CC2D1A_Q6P1N0_765_LDALEIACEVR (UniProt Q6P1N0) | 0.0115 | 0.276
CCDC47_Q96A33_283_EMQDLSEFCSDKPK (UniProt Q96A33) | -0.0254 | 0.053
